## Percent effect of library compounds

Amino acid sequences for entries named in this document (tags omitted). Residues count along the entry.
UniProt P9WNZ1, whole entry: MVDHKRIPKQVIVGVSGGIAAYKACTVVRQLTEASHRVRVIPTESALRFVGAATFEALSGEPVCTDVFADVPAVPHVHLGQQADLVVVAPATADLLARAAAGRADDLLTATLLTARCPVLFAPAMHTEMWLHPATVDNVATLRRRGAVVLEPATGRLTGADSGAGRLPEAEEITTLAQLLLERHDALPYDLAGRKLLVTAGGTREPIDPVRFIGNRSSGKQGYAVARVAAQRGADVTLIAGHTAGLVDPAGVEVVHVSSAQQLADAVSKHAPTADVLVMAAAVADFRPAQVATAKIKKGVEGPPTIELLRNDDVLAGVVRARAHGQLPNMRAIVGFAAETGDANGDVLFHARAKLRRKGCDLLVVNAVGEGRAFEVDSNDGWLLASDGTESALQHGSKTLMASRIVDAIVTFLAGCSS
UniProt Q4DA54, 1-478: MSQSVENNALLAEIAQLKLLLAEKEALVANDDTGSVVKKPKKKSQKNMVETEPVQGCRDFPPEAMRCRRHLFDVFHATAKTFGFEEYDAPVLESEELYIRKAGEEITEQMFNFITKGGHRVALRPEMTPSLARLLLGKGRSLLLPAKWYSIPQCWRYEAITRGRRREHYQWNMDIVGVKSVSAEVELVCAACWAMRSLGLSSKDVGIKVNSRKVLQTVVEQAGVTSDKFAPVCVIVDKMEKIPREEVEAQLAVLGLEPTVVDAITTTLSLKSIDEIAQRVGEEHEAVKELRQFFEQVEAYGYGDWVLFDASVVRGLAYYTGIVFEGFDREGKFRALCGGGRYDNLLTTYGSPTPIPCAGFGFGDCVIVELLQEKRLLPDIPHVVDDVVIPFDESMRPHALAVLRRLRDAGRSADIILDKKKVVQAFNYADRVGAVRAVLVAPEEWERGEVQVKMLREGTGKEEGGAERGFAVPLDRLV

Each number is a percent effect as filed.
How 0% and 100% were set is not recorded. Most values in the screen are low, and negative values occur.
This is an unselected part of the compounds tested.
A dash means the value is not listed here; it may have been measured.

CoaBC: 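Enzyme assay of CoaBC with a phosphate dye (Biomol Green) read at 650 nm. Target: Coenzyme A biosynthesis protein CoaBC, Mycobacterium tuberculosis (UniProt P9WNZ1). Tested at 30 µM. Direction is inferred from only a few compounds that gave an IC50; most scored high, so higher reads as stronger inhibition. Most strong results did not repeat in a second test. About 67,000 compounds were tested under these conditions; 0.06% (about 40) showed 50% or more at least once.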
TcHisRS: 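Histidine-tRNA ligase, Trypanosoma cruzi CL Brener (UniProt Q4DA54). Enzyme assay of histidyl-tRNA synthetase; the read-out is not stated. Concentration: 30 µM. The record gives no direction; compounds that gave an IC50 in retests scored well above the rest, so higher reads as stronger inhibition. About 69,000 compounds were tested under these conditions; 0.045% (about 31) showed 50% or more at least once.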

Compound	CoaBC	TcHisRS
Cc1cc(C(=O)Nc2cnn(CC(F)(F)F)c2)nc(N2CCOCC2)n1	1.848	0.8696
CC(C)OCc1ccccc1CNC(=O)C(C)S(=O)(=O)C(C)C (stereo unspecified)	9.428	5.051
O=S(=O)(c1cccnc1)N1CCN(Cc2nc(-c3ccco3)cs2)CC1	3.817	3.614
Fc1cnc(N2CC[C@@H](N3CCOCC3)[C@@H]2Cc2ccncc2)nc1	-2.764	4.902
CCCc1ncc(CNC2(c3ccc(Cl)cc3)CCC2)cn1	-9.246	4.478
CCN1CCCC(C)(C(=O)NCCCc2nc(C)cs2)C1 (stereo unspecified)	0	6.704
O=C(Cc1ccc2c(c1)OCO2)N1CCN(c2ccncc2)CC1	0.4878	1.961
Cn1ccnc1-c1cn(CCCc2csc(N)n2)nn1	15.93	14.43
Cc1nc(C2CCCN2CCS(C)(=O)=O)no1 (stereo unspecified)	3.422	8.876
CC(C)(C)CC(=O)N1[C@@H](c2ccco2)[C@@H](CO)C[C@]12CCCCNC2=O	3.148	3.371
Clc1ccc(-c2nnc(CNCCn3cccn3)o2)c(Cl)c1	1.575	5.714
COc1ncnc2c1CCN(c1cccc(F)c1)CC2	6.762	4.598
Cn1cc(-c2ccc(C3CCCCN3Cc3cccnc3)cn2)cn1 (stereo unspecified)	3.883	8.812
CC(C)(O)CCc1cccc(C(=O)NCC2COCCO2)c1 (stereo unspecified)	-1.606	0
Cc1cc(C(=O)NCC2CCCC2)c(C)n1-c1cccnc1	0.2404	3.797
COCCN1C[C@@H](C)[C@@]2(COCCN(C(=O)c3ccoc3)C2)C1	-7.097	6.468
Cc1cnc(N2CCC3(CC2)CC(N(C)Cc2ccncc2)C3)nc1	1.833	6.897
COc1ccc(CN2CC[C@H](NC(C)=O)[C@@H](O)CC2)c(OC)c1	-2.5	2.703
CN1CCOC[C@H]1c1nc(-c2ccccc2)c[nH]1	-8.352	10.89
CC(C)C1SCC(=O)Nc2c1cnn2-c1ccc(F)cc1 (stereo unspecified)	-0.6075	9.901
Cc1nc(COC[C@@H]2CC[C@H]3[C@H](CCN3C(=O)C3CC3)O2)cs1	1.015	4.926
COc1ccccc1C1(C(=O)NCCN2CCCCC2)CCOCC1	-1.053	0.2933
CCn1c(-c2ccccc2)nn(CC(=O)NCCc2ccc(C)o2)c1=O	7.856	7.2
COc1ccc(Cl)cc1CN(C)C(=O)CN1C(=O)CCC1C (stereo unspecified)	-1.984	3.478
Cc1cc(N(C)C)nc(NC2CCc3nc(C)nn3C2)n1 (stereo unspecified)	5.179	4.211
Cc1cc2occ(CC(=O)N3CCC(O)(CN(C)C)C3)c2cc1Cl (stereo unspecified)	-4.146	1.961
O=C(CN1C(=O)CCC1=O)NCCc1nc(C2CC2)cc(C(F)(F)F)n1	1.695	9
CC(=O)N1CCCC(c2ccc(Cc3ccccc3)cn2)C1 (stereo unspecified)	3.841	12.73
CCN(C)c1ncnc2c1CCN(C(=O)COC)CC2	4.405	4.95
CCS(=O)(=O)N1CCC2(CN(c3cccc(F)c3)C(=O)CN2C)C1 (stereo unspecified)	6.345	2.956
CCCSCC(=O)N1CCCC(CO)(CCC)C1 (stereo unspecified)	10.16	6.468
O=S(=O)(C1CC1)N1CCn2cc(CNc3ccccn3)nc2C1	-1.613	7.463
c1cnc(N2CCC3(CCN(CC4CC4)CC3)CC2)nc1	4.247	1.639
CN(C)C(=O)COC1COC2(CCN(CC3CCOCC3)CC2)C1 (stereo unspecified)	4.579	7.538
CC1NC(=O)COC12CCN(C(=O)Cc1ccsc1)CC2 (stereo unspecified)	-	3.797
COc1ccc(-c2nonc2N)cc1	-0.1227	3.468
O=S(=O)(NCCNc1ccc(-n2cccc2)nn1)c1ccccc1	-6.977	1.031
COCC(=O)N(Cc1cccnc1)CC1CCN(C2CCCC2)CC1	11.88	4.082
O=C(CN1CCc2onc(-c3ccccc3F)c2C1)NC1CC1	4.43	3.659
CC(C)(O)c1cn(C2CCN(C(=O)CCc3ccncc3)CC2)nn1	3.354	-0.9662
CC(C)C1CN(C(=O)c2ccsc2)CCS1 (stereo unspecified)	-0.3654	5.357
COc1ccc(-n2ccc(C(=O)N(C)C(C)C3(C)CC3)n2)cc1 (stereo unspecified)	-0.7264	-1
Cn1cc(CC2CC(=O)N(Cc3ccc(Cl)cc3)C2=O)cn1 (stereo unspecified)	-5.374	-8.407
COc1cc(C(C)NCc2scnc2C)ccc1SC(F)F (stereo unspecified)	3.423	2.062
CC1CC2(CCN(C(=O)c3c[nH]cn3)CC2)c2ccccc21 (stereo unspecified)	4.242	3.911
N#Cc1nccnc1NC1CCN(c2ccccc2Br)C1 (stereo unspecified)	2.764	-3.922
N#Cc1ccnc(SCC2CN=C(N3CCOCC3)S2)c1 (stereo unspecified)	0.4914	0
Cn1c(C2CC2)nc2c1CCN(CCc1ccccn1)C2	-	0
COc1ccc(C(=O)NC[C@H]2COCc3nc4cc(C)ccc4n32)cc1	5.519	8.696
CCn1cc(NC(=O)C2CCC(=O)N2Cc2ccco2)cn1 (stereo unspecified)	2.806	11.92
Cc1ccc(C)c(C(=O)CN2C(=O)c3ccccc3CS2(=O)=O)c1	-1.919	-13.33
O=c1c2cccc(Cl)c2ncn1C1CCNC1 (stereo unspecified)	-1.241	2.89
O=C(OCC1CCCN(C(=O)c2ccccc2)C1)c1cscn1 (stereo unspecified)	4.481	-0.6135
c1cc(-c2noc(-c3cc(C4CC4)[nH]n3)n2)cc(N2CCCCC2)n1	-5.366	11.69
O=C(Cn1cc(-c2ccccc2)cn1)N1CCNC1=O	3.639	6.468
CCn1c(C2CCN(C(=O)COCC(F)(F)C(F)F)CC2)n[nH]c1=O	-10.48	7.263
Cc1cc(-c2ccccc2Cl)nc(N)n1	5.411	8.8
O=C(c1cccnc1)N1CCC2(CNS(=O)(=O)c3cnccc3O2)C1 (stereo unspecified)	3.158	-0.5917
O=C(NCCc1ccc(F)cc1)NCC(O)c1cccc(F)c1 (stereo unspecified)	-5.59	3.152
CCc1[nH]n(C)c(=N)c1-c1ccc2c(c1)OCO2	-0.9926	6.358
CN1CCN(Cc2cnc3n2CCN(C(=O)c2ccnnc2)C3)CC1	1.269	-3.941
O=C(NCCCN1CCOCC1)c1ccn(COc2ccc(Br)cc2)n1	-3.695	3.478
CNc1ncc(CN(C)C(=O)c2cccc(Cn3cccn3)c2)cn1	-1.85	-1.754
CN1CCCC(Cc2cncc(C(=O)N3CCOCC3)c2)C1 (stereo unspecified)	4.337	2.996
CC(C)(C)c1ncc(C(=O)NCCNC(=O)c2ccc(O)cc2)s1	7.535	4.046

Once more, the final 4:

{"compound": "O=C(NCCCN1CCOCC1)c1ccn(COc2ccc(Br)cc2)n1", "CoaBC": -3.695, "TcHisRS": 3.478}
{"compound": "CNc1ncc(CN(C)C(=O)c2cccc(Cn3cccn3)c2)cn1", "CoaBC": -1.85, "TcHisRS": -1.754}
{"compound": "CN1CCCC(Cc2cncc(C(=O)N3CCOCC3)c2)C1", "stereo": "stereo unspecified", "CoaBC": 4.337, "TcHisRS": 2.996}
{"compound": "CC(C)(C)c1ncc(C(=O)NCCNC(=O)c2ccc(O)cc2)s1", "CoaBC": 7.535, "TcHisRS": 4.046}

Data taken from ChEMBL document CHEMBL3988442, “University of Dundee, Small-Polar-MMV Screening Library” (2021).